Data: article PMC9209810
Results are given in words; binding and its absence hold for the method and conditions named. Binding calls can cover weak binding; strength is not graded here.

Columns and labels:
ScAG (Senecio cruentus) = assay: two-hybrid; Matchmaker Gold Yeast Two-hybrid System, strain Y2H Gold; pGBKT7 (BD) and pGADT7 (AD) fusions co-transformed, both orientations; growth on SD/-Trp/-Leu/-His/-Ade at 1-, 10- and 100-fold dilution
[1] = molecular target: ScAGL11 (Senecio cruentus); assay: as above

binding (ScAG (Senecio cruentus)) | binding [1] | Substance
binds | – | ScAGL11 (from UniProt A0A9E8AG79)
– | binds | ScAG (from UniProt A0A9E7VC37)
